# This is one part of the list.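 The calls were made as follows: active = dose-dependent thermal stabilisation significant by F-test of dose-response against flat model at 10% FDR; inactive = not significant.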
# Amino acid sequences for entries named in this document (tags omitted). A change or cut given only in a name is not applied to a line headed by its entry.
# UniProt Q68DK7: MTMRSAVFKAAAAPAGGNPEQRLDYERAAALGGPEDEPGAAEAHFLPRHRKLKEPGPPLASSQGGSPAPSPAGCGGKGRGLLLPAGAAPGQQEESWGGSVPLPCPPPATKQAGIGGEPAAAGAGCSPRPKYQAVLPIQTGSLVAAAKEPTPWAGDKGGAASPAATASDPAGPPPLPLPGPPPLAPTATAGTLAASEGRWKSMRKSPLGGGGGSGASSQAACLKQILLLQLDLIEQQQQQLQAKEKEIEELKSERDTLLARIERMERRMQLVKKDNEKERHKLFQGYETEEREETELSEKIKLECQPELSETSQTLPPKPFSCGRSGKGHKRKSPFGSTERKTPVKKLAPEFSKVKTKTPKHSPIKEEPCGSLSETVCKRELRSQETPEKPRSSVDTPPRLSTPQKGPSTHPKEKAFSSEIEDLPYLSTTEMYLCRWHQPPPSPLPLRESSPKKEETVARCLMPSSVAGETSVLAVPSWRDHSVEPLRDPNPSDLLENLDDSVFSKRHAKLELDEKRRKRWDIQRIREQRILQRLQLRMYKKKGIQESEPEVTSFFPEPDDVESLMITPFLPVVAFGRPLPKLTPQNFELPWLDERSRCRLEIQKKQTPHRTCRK
# UniProt Q9UL63, whole entry: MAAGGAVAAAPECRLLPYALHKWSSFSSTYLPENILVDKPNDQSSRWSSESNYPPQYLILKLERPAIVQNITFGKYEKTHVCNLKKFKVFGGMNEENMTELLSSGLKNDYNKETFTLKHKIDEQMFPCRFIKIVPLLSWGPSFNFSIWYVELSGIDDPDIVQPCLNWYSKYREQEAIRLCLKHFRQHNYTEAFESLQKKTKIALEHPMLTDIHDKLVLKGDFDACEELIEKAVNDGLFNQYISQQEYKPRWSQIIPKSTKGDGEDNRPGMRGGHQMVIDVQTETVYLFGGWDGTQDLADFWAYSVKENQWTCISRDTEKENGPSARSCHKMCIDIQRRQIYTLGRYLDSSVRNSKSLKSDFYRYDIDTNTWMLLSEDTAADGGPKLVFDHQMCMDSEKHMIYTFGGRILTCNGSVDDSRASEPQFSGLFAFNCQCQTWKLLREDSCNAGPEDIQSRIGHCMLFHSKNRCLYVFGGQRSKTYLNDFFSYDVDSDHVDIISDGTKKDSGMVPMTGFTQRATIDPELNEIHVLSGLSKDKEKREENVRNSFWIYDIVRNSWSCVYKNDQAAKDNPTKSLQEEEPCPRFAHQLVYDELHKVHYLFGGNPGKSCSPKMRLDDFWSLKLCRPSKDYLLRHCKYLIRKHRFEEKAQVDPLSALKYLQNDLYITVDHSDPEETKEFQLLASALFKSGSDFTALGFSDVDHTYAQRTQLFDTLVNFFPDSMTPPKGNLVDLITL
# UniProt Q9H081: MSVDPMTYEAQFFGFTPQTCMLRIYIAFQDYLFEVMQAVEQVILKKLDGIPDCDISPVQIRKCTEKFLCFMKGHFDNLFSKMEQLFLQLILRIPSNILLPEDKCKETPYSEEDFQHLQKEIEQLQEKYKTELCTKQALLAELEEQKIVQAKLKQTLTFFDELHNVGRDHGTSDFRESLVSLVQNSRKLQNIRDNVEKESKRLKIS
# UniProt Q9NQG6: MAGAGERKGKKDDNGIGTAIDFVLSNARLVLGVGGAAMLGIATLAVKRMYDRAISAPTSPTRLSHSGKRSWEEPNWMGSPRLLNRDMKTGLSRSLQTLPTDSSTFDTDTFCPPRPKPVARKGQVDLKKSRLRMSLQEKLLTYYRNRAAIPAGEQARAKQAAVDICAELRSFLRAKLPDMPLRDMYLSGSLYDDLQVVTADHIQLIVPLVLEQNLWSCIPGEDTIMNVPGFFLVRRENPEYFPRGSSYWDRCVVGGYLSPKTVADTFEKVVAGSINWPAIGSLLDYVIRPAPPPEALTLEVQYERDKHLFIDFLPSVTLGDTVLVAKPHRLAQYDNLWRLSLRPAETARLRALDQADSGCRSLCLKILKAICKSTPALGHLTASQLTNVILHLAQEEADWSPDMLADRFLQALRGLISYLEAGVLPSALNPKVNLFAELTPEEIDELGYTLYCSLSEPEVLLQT
# UniProt Q9Y6R4: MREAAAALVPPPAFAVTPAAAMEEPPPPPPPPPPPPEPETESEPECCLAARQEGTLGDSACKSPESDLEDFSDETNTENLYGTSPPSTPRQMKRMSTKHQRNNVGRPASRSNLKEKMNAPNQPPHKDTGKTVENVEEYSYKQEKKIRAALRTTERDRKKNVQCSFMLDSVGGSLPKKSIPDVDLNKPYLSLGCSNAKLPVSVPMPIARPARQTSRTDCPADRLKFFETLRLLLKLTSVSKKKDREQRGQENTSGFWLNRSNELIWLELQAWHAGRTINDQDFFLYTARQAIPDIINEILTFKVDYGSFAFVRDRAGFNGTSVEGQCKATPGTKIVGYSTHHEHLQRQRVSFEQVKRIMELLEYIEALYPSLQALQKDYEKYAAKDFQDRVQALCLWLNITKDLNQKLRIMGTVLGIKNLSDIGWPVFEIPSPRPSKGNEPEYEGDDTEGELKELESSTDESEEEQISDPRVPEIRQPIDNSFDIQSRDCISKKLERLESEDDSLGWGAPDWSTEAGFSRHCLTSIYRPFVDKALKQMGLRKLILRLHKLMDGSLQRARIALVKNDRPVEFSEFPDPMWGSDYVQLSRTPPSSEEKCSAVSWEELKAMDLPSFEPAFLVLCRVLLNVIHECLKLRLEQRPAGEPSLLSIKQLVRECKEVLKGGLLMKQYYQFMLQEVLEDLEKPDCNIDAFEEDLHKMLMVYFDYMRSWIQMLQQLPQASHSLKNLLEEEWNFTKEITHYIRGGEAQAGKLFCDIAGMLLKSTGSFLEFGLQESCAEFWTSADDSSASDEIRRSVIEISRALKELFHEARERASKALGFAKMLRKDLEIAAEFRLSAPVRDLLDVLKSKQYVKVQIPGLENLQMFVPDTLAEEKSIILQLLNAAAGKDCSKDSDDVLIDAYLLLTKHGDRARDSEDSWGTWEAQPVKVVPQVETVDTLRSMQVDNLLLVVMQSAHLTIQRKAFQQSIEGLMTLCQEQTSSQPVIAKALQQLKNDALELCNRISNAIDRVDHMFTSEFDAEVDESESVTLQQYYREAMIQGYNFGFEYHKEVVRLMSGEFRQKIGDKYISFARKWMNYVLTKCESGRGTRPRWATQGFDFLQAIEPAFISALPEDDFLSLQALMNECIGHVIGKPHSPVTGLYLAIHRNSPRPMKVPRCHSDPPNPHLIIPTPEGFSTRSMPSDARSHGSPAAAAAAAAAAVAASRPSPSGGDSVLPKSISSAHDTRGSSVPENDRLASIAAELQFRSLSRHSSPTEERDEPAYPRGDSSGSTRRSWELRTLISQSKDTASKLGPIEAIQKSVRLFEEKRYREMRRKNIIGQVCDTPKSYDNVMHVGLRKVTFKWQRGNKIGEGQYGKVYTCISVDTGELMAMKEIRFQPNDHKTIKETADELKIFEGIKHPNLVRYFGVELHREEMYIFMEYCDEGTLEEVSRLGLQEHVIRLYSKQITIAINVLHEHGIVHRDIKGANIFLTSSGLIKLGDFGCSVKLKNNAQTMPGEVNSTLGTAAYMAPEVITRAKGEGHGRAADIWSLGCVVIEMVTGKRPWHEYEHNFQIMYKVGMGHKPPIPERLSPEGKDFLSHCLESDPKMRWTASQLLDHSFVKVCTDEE
# UniProt Q8WXB1: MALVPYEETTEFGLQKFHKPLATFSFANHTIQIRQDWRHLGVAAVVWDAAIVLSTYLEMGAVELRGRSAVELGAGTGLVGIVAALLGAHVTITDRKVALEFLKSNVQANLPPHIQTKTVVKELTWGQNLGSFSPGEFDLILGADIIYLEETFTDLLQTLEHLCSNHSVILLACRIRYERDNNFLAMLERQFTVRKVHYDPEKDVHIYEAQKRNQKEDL
# UniProt Q99836, whole entry: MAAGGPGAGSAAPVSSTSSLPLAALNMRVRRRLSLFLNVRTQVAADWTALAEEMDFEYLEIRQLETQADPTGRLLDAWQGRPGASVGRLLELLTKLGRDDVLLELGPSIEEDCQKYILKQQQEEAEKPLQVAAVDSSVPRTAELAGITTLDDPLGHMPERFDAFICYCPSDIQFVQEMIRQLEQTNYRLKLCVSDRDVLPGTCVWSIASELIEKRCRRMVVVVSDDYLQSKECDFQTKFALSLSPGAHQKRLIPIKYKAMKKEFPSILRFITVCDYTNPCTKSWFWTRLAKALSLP
# UniProt P31153, whole entry, looked up: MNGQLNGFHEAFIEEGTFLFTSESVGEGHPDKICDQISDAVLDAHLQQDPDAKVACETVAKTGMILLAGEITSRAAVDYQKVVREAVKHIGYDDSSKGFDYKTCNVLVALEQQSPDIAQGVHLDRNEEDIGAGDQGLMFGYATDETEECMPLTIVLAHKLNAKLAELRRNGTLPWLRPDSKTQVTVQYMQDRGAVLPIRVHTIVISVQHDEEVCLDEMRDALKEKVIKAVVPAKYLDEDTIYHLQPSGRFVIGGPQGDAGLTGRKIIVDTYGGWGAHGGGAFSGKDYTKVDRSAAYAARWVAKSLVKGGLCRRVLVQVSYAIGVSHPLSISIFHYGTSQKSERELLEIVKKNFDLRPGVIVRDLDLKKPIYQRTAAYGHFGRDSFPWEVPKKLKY
# Compound: Nc1nc2c(ncn2[C@@H]2O[C@H](COP(=O)(O)OP(=O)(O)OP(=O)(O)O)[C@@H](O)[C@H]2O)c(=O)[nH]1
# Assay: dose-dependent thermal stabilisation call (2D-TPP, DLPTP, 10% FDR) (binary (1 = stabilised)); higher = stabilised by the compound
# Conditions: system: Jurkat gel-filtered lysate; concentration range 1-500 µM
row,Target,dose-dependent thermal stabilisation call
1,MYCBP2 (UniProt O75592),inactive: 0
2,MSL1 (UniProt Q68DK7),inactive: 0
3,MKLN1 (UniProt Q9UL63),inactive: 0
4,MIS12 (UniProt Q9H081),inactive: 0
5,MIEF1 (UniProt Q9NQG6),inactive: 0
6,MAP3K4 (UniProt Q9Y6R4),inactive: 0
7,METTL21A (UniProt Q8WXB1),inactive: 0
8,MYD88 (UniProt Q99836),inactive: 0
9,MAT2A (UniProt P31153),inactive: 0

# Source: the supplement of paper PMC7666118
